{"source": "patent US9994824B2", "about": "“Method for promoting hair growth using composition comprising PDGF-D treated adipose-derived stem cells” (INDUSTRY-ACADEMIC COOPERATION FOUNDATION, YONSEI UNIVERSITY, priority 2015, dated 2018)", "key": {"[1]": {"tested_on": "ASCs", "assay": "cell migration assay (trans-well)", "type": "cell-based, human", "conditions": "inhibitor treatment of PDGF-D-treated ASCs", "description": "(§1) Human ASCs were obtained from a subcutaneous fat by liposuction according to a known method (Kim et al. J Dermatol Sci 53:96-102, 2009). ASCs were cultured in an α-MEM medium (Hyclone, Thermo Scientific) with 10% FBS (GIBCO, Invitrogen) and 1% penicillin/streptomycin (GIBCO) at 37° C. in 5% CO2, and cells at 7-9 passages were used. Positive expression of CD44, CD73, CD90, CD105, HLA-1 and PODXL and negative expression of CD34 and CD45 were examined by flow cytometry (Kim et al. Cell Death Dis 4:e588, 2013; Kim et al., Cell Biol Int 38:32-40, 2014), and multipotent differentiation potential for the cells to differentiate into adipocytes, osteocytes and cartilage cells was examined (Song et al. Stem Cells Dev 17:451-461, 2008).\nAlso, for cell migration assay, 2×10^4/well of ASCs were seeded on the upper portion of a trans-well membrane plate (Corning, USA). After 2 hours, PDGF isoforms (10 ng/ml) and an α-MEM medium with 0.2% FBS were introduced to the lower portion of the trans-well membrane plate to culture the PDGF isoforms for 16 to 20 hours. Afterward, cells migrated to the trans-well membrane were fixed with cold ethanol for 20 minutes, and stained with 10% crystal-violet (Sigma, USA) at room temperature for 30 minutes."}, "[2]": {"tested_on": "ASCs", "assay": "cell proliferation assay (CCK-8 cell numbers)", "type": "cell-based, human", "conditions": "inhibitor treatment of PDGF-D-treated ASCs", "description": "as §1\nFor cell proliferation assay, 7×10^3 of ASCs were seeded on 48-well plates, 24 hours later, a medium was transferred with a 0.2% FBS-containing α-MEM medium, and the following day, cells were treated with PDGF isoforms (10 ng/ml) for 48 hours. Afterward, the medium was removed, the cells were treated with a 10% CCK-8 solution for 2 hours using a CCK-8 assay kit (Dojindo, Japan), and the absorbance was measured at 450 nm, to examine cell numbers."}}, "note": "At least one structure is not confirmed: it was looked up by name or label, or the drawing left a doubt."}
{"smiles": "O=c1cc(N2CCOCC2)oc2c(-c3ccccc3)cccc12", "note": "[LY294002]", "values": [{"measurement": "migration of ASCs increased by PDGF-D, effect of inhibitor", "setting": "[1]", "result": "inhibited"}, {"measurement": "proliferation of ASCs increased by PDGF-D, effect of inhibitor", "setting": "[2]", "result": "inhibited"}]}
